Laboratory results taken from patent US11976274B2, “Methods and compositions for identifying neoantigens for use in treating and preventing cancer” (Arizona Board of Regents on Behalf of Arizona State …, priority 2019, dated 2024).
Some of these results come from one statement about several compounds together.

Tested on: BALB-NeuT mouse breast tumor
Test: BALB-NeuT transgenic mouse mammary cancer model, tumor free curve
Type: in vivo
Settings: Mantal-Cox test
Method: BALB/c and C57BL/6 mice were from Charles River Laboratories or Jackson Laboratories. For the tumor challenge, 5×10^3 4T1 cells were injected in the mammary pad at the right flank of the mice, or 1×10^5 B16F10 cells were injected subcutaneously in the right flank of the mice. Tumor volumes were measured and calculated by (Length^2×Width/2) daily after the size was larger than 1 mm^3. Breeding pairs of BALB-neuT and FVB-neuN (FVB/N-Tg (MMTVneu) 202Mul) mice were obtained from Joseph Lustgarten, Mayo Clinic Arizona. Mice were monitored weekly for the tumor incidence after tumor size reached 1 mm^3. All experiments were performed in accordance with protocols approved by the Institutional Animal Care and Use Committee of Arizona State University. Statistical significance of differences was analyzed by a Student t-test.
Mice were genetically immunized by Gene Gun at 4-6 weeks with 100 ng of antigen(s) in pCMVi vectors, boosted twice (3-4 days apart) at 9-10 weeks with 1 μg of the same antigen(s), and boosted once at 13-14 weeks with protein. Genetic immunizations included adjuvants LTAB (0.5 μg) and CpG 2216 (5 μg). Protein boosts were 50 μg of KLH conjugated FS peptides (SMC1A-1^4, n=32; RBM FS, n=22; SLAIN2 FS, n=14 and pool of three FS neoantigens, n=37). The protein boost included 50 μg CpG 2216 and 50 μl alum in 100 μl PBS as the adjuvant. […]

Sequence	p, tumor free curve, 3FS pool vs individual FS antigen group
TAIIGPNGSGCSGVYCHEEPQGEDSSV [mSMC1A-1^4]	< 0.005
GRVIECDVVKGSCQDGEAVHWKSAPGGHRAGDPLTLRAVREGAGM [RBM FS]	< 0.005
